From article PMC2680019

Sequences of proteins named here, by UniProt entry; tags and fusion partners are left off. A change or cut given only in a name is not applied to a line headed by its entry. Residues count along the entry.
UniProt Q9HBL0, residues 648-1839: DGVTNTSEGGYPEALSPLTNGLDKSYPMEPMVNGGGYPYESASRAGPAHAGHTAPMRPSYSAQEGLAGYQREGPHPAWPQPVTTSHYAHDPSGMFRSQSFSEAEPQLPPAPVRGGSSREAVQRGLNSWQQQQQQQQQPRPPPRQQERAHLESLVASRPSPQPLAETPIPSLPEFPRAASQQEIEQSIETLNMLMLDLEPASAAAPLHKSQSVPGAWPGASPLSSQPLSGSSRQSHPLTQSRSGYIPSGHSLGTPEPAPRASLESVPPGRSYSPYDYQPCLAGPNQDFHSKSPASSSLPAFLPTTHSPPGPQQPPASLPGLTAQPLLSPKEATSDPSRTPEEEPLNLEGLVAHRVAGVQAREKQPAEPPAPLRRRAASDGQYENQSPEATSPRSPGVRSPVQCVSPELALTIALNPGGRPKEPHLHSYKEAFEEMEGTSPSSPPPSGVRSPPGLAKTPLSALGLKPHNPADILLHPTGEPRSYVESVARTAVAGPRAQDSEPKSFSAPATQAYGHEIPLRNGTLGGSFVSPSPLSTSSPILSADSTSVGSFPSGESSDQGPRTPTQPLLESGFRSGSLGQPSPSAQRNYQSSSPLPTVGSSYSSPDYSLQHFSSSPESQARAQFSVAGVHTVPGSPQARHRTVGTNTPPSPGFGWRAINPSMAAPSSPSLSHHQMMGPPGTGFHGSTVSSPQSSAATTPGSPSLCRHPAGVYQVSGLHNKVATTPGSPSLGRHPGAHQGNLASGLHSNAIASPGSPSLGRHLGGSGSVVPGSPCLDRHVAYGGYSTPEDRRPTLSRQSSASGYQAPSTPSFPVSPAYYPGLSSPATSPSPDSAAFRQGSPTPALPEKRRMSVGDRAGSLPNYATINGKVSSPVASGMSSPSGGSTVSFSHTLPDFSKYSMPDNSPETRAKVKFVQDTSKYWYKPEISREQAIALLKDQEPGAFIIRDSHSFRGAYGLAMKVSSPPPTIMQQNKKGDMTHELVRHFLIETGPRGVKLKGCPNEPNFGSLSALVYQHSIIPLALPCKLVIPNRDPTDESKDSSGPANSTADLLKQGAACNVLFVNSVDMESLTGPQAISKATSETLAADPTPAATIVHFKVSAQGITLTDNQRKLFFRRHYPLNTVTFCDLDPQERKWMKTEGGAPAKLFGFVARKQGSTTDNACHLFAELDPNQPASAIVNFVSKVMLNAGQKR
UniProt Q8IZW8: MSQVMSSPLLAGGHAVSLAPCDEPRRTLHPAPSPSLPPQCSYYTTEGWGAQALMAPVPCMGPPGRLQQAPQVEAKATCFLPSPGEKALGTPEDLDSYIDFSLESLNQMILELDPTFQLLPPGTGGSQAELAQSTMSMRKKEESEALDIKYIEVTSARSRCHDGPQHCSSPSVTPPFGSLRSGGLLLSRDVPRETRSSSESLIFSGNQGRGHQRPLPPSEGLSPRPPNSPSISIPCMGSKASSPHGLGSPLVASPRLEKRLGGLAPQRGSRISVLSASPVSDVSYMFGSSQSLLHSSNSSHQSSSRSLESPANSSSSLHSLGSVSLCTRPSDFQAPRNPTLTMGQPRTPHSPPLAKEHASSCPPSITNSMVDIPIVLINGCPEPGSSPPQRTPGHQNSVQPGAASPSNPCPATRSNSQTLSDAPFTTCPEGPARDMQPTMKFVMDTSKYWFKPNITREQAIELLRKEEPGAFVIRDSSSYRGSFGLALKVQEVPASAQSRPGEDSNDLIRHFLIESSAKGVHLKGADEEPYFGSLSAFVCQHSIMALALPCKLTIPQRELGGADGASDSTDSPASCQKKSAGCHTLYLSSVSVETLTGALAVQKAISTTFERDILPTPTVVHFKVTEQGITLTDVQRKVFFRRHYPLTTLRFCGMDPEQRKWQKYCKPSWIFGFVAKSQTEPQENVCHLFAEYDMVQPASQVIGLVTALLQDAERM

Key:
Test in all cases: co-IP; HEK293T co-transfected with Myc-tagged tensin and FLAG-tagged DLC1 (or GFP-tagged DLC2); cleared lysate in NET-N buffer (25 mM Tris-HCl pH 8.0, 50 mM NaCl, 0.2 mM EDTA, 0.1% NP40); anti-Myc antibody overnight at 4°C, protein-A sepharose, 5 washes; blot with anti-FLAG (anti-GFP for DLC2)
[1] = biological target: Myc-tagged tensin1 C-terminus 648-stop (UniProt Q9HBL0)
[2] = biological target: Myc-tagged C-terminal tensin-like (cten) (UniProt Q8IZW8)
[3] = biological target: T1, Myc-tagged Tensin2 R1165A (UniProt Q63HR2)
T1 sequence: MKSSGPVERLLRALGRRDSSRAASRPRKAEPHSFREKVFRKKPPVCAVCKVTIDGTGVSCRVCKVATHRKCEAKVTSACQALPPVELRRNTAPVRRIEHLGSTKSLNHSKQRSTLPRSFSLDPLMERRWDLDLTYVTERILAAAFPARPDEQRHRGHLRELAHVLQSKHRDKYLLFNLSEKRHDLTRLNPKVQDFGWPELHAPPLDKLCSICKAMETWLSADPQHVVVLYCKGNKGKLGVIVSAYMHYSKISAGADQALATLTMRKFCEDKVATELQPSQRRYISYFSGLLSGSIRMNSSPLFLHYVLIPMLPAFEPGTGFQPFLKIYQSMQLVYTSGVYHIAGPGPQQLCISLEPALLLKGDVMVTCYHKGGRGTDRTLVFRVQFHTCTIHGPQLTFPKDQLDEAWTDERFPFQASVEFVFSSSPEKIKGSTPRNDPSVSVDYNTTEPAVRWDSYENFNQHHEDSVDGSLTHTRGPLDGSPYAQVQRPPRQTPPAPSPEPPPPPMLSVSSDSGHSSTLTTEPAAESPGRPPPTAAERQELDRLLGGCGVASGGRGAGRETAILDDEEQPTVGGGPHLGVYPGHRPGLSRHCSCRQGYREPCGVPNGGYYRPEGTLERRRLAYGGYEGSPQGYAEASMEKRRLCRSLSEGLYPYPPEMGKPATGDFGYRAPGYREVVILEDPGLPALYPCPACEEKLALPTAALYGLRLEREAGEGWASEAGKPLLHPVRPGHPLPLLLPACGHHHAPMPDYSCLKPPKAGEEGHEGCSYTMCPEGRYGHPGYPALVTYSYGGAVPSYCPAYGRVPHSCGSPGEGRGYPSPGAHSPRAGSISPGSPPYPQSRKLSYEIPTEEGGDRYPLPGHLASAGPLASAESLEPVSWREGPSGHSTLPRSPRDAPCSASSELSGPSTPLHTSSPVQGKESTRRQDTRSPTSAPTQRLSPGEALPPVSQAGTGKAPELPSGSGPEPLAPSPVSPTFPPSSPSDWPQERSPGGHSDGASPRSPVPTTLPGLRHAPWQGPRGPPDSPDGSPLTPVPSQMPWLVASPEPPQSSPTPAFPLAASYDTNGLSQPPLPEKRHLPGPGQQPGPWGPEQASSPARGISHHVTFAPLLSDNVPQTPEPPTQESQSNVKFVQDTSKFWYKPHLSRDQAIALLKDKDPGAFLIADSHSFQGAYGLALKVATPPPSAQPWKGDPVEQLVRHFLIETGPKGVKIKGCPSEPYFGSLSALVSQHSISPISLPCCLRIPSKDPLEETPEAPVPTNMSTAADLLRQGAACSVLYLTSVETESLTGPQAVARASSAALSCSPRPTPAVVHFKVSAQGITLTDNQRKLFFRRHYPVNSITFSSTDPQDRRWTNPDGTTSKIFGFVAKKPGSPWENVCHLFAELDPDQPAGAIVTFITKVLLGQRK

[4] = biological target: T2, Myc-tagged Tensin2 1135-1409 (SH2-PTB) (UniProt Q63HR2)
T2 sequence: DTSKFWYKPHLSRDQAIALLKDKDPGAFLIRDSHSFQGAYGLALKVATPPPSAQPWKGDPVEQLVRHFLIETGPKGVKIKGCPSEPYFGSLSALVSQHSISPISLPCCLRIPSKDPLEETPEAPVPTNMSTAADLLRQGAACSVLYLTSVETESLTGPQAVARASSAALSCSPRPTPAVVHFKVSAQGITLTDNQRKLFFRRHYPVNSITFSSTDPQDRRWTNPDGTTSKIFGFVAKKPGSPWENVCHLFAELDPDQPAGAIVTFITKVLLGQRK

Measured: binding

FLAG-tagged DLC1 FL (Deleted in liver cancer 1, wild-type) (from UniProt Q96QB1-1)
binds: all assays above

No constants are given. Whether binding was seen depends on the method and setting. Binding seen in cells or lysates may run through a third protein. Binding calls can cover weak binding; strength is not graded here. For some of these results: Tags and fused reporters may be left off the sequences shown.
